Laboratory results published in PMC7029496.
Results are given in words; binding and its absence hold for the method and conditions named. Binding calls can cover weak binding; strength is not graded here. Tags and fused reporters may be left off the sequences shown.

Tests used:
[1] = target: T1, XC_1359 (PilU), bacterial two-hybrid fusion (Xanthomonas campestris pv. campestris strain 8004) (UniProt Q8P759); assay: two-hybrid; BacterioMatch II bacterial two-hybrid in E. coli XL1-Blue MRF′; pilG and pilH in pTRG (prey), fliN in pBT (bait); growth on double-selective plates with 5 mM 3-AT and 12.5 μg/ml streptomycin
T1 sequence: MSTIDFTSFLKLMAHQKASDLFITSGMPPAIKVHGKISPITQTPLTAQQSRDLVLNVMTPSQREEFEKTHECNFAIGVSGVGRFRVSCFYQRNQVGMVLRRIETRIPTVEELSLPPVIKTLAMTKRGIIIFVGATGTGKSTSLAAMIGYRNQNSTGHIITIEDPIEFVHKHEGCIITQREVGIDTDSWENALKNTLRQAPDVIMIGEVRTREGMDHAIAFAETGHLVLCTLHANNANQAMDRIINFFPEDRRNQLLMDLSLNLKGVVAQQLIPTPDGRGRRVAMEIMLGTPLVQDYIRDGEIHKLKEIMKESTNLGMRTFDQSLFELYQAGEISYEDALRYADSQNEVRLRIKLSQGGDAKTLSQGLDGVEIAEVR

[2] = target: T2, XC_4031 (PhoP), bacterial two-hybrid fusion (Xanthomonas campestris pv. campestris strain 8004) (UniProt Q7CLM6); assay: as above
T2 sequence: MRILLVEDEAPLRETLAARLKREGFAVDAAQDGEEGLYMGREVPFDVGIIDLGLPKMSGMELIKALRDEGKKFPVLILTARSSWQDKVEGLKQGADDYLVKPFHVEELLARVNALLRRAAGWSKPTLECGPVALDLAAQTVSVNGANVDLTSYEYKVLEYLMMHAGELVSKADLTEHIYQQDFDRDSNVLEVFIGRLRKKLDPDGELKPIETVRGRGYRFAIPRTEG

Row | Substance | binding [1] | binding [2]
1 | PilG, bacterial two-hybrid fusion from pTRGpilG | binds | –
2 | PilH, bacterial two-hybrid fusion from pTRGpilH | – | binds
